Values of other authors in patent US20260007687A1, “A[…] EMULSION INJECTION AND METHOD FOR PREPARING SAME” (JIANGSU NHWA PHARMACEUTICAL CO., LTD, priority 2022, published 2026).

Conditions: background statement; cited from earlier work

For CC(=O)[C@H]1CC[C@H]2[C@@H]3CC[C@H]4C[C@H](O)CC[C@]4(C)[C@H]3C(=O)C[C@]12C [alphaxalone], the “potency of alphaxalone relative to propofol” value is given as 5 times.
